# Results are given in words; binding and its absence hold for the method and conditions named. In cells and extracts the contact can be indirect. Some binding calls cover weakened binding; strength is not graded here. Where a sequence is shown, tags or fusion partners need not be part of it.
# T1: E. coli TatC with C-terminal Twin-Strep tag, expressed from a tatABC plasmid (Escherichia coli) (UniProt P69423)
# T1 sequence: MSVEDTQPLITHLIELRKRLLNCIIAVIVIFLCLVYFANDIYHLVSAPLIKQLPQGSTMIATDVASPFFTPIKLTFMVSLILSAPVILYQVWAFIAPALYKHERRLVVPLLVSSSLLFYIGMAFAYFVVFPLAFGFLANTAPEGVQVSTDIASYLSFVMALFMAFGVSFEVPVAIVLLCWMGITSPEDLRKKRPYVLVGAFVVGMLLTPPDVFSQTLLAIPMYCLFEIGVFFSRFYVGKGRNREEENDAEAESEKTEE
# Biological target: T1, E. coli TatC with C-terminal Twin-Strep tag, expressed from a tatABC plasmid (Escherichia coli)
# Assay: pull-down; E. coli TatAHisTatBC_(strep) solubilised in GDN, purified successively by the strep tag on TatC and the His tag on TatA; SDS-PAGE, Coomassie
binder,measurement,value
"E. coli TatA with an inserted ALFA-His tag (natural protein, Escherichia coli, UniProt P69428 1-89, looked up, TatA of Escherichia coli; also called TatA_(ALFA); TatA_(ALFA,His); not shown: ALFA, internal (in the cytoplasmic part of TatA), kept) MGGISIWQLLIIAVIVVLLFGTKKLGSIGSDLGASIKGFKKAMSDDEPKQDKTSQDADFTAKTIADKQADTNQEQAKTEDAKRHDKEQV",binding,binds

# From article PMC13323110, “Structure and substrate recognition by the bacterial twin-arginine translocation (Tat) core complex” (Nature Microbiology, 2026)
